According to patent publication US10927418B2, “Assays and methods for selecting a treatment regimen for a subject with leukemia” (CELATOR PHARMACEUTICALS, INC., priority 2015, dated 2021):
At least one structure is not confirmed: it was looked up by name or label, or the drawing left a doubt.

Columns and labels:
Format in all cases: cell-based
[1] = system: KG-1, ME-1, MOLM-13 and MOLM-14; assay: Synergy of CPX-351 with FLT-3 inhibitor, EOBA algorithm; settings: CPX-351 precedes FLT-3 inhibitor or simultaneous; certain combinations
GDM-1 cells = assay: Synergy of CPX-351 with FLT-3 inhibitor, Chou-Talalay algorithm; settings: three protocols
MOLM-14 cells = assay: as above

SMILES: CO[C@@H]1[C@H](N(C)C(=O)c2ccccc2)C[C@H]2O[C@]1(C)n1c3ccccc3c3c4c(c5c6ccccc6n2c5c31)C(=O)NC4 [midostaurin]
- synergy with CPX-351 (EOBA) [1]: high synergy
- synergy with CPX-351 (combination index), difference between protocols (GDM-1 cells): not significantly different
- synergy with CPX-351 (combination index) (MOLM-14 cells; CPX-351 concomitantly with or before FLT-3 inhibitor): high number of wells that show synergy
- synergy with CPX-351 (combination index) (MOLM-14 cells; FLT-3 inhibitor prior to CPX-351): more antagonistic results
